For this experiment, the target named is High-mobility group box 1 (UniProt P10103). The experiment is described as follows: co-IP; 8 μg HMGB1 monoclonal antibody with 1 mg pre-cleared BOGC lysate overnight at 4 °C, protein A/G agarose (Pierce Classic IP kit); blots for TLR2, TLR1, TLR6 and phospho-NF-κB p65; cells treated for 24 h with 0 or 5 μg/mL HMGB1, with or without 1.25, 2.5 or 5 μg/mL curcumin or siRNA-TLR2.

Sequences of proteins named here, by UniProt entry; tags and fusion partners are left off. Residues count along the entry.
UniProt P10103: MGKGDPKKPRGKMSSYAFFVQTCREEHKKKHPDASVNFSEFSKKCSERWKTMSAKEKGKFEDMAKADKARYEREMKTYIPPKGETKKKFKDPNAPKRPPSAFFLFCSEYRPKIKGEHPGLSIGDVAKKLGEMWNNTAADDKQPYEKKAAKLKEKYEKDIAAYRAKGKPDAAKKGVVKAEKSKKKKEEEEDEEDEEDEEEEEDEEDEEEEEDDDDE
UniProt Q95LA9, residues 21-784: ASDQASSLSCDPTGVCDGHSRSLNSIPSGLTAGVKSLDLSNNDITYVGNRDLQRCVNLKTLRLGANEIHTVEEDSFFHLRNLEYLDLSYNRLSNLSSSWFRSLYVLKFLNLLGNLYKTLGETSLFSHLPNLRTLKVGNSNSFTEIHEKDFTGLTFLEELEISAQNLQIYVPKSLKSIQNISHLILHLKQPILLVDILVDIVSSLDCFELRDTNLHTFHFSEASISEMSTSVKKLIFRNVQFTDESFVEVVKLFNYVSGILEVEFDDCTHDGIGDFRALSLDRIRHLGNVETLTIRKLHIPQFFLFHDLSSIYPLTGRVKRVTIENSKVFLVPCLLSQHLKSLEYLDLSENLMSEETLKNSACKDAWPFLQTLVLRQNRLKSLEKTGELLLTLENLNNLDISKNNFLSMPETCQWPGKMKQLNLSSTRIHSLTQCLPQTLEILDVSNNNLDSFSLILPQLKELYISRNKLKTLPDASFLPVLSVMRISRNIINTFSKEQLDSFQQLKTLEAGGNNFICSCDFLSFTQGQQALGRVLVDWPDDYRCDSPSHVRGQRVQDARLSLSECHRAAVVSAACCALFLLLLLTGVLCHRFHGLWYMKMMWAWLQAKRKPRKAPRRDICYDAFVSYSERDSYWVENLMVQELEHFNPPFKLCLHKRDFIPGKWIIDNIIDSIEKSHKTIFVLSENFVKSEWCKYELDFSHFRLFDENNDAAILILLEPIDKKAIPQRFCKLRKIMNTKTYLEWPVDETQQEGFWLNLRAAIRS

The values that follow come from publication PMC12470860.

Results are given in words; binding and its absence hold for the method and conditions named. Binding seen in cells or lysates may run through a third protein. Some entries that bind do so weakly or less than the wild type.

For the molecule “Toll-like receptor 2 (from UniProt Q95LA9 21-784)”, the binding entry is on record as “binds”.

B1: TLR6 (receptor, UniProt Q704V6 24-793)
chain: TIIQFSDESEFVVDMSKTSLIHVPKDLPPKTKVLDLSQNNISELHLSDISFLSGLRVLRLSHNRIQGLDISIFKFNHDLEYLDLSHNQLQKISCHPITTTLKHLDLSFNDFDALPICKEFGNLTQLNFLGLSATKLQQLDLLPIAHLHLSCILLDLEDYMKENKKESLQILNTKKLHLVFHPNSFFSVQVDISANSLGCLQLTNIKLNDYNCQVLLKFLSGLTGGPTLLNFTLNHVETTWKCLVKVFQFLWPKPIEYLNIYNLTIVESIDEEVFTYYKTTLKALKIEHITNKVFIFSQTALYTVFSEMNILMLTISDTRFIHMLCPQEPSTFKFLNFTQNSFTDSVFQNCDTLARLETLILQKNELKDLFKTSLMTKDMLSLETLDVSWNSLEYDRSNGNCSWVGSIVVLNLSSNALTDSVFRCLPPRIKVLDLHNNRIRSIPKDVTGLETLQELNLASNSLAHLPGCGIFSSLSILIIEHNSISNPSADFFQSCQKIRSLKAGNNPFQCSCELRDFIQSVGQVSSDVVEGWPESYKCDYPESYKGTPLKDFQVSELSCNTALLIITIVVPGLVLAVAVTVLCIYLDLPWYLRMVCQWTQTRRRARNVPLEELQRTLQFHAFISYSEHDSAWVKNELIPNLEKEDIRICLHERNFVAGKSIVENIINCIEKSYKSIFVLSPNFVQSEWCHYELYFAHHNLFHEGSDNLILILLDPIPQYSIPSSYHKLRALMAQRTYLEWPKEKSKHGLFWANLRASINIKLMEKAAEIH
As for B1, the binding result is given as “binds”.
